The target in the test is hIL-17A (human) (UniProt Q16552). In words: ELISA of purified protein from mammalian cells at 5, 2.5, 1 and 0.5 µg/ml on plate-immobilised hIL-17A, OD 450 nm.

Sequences of proteins named here, by UniProt entry; tags and fusion partners are left off. Residues count along the entry.
UniProt Q16552, residues 24-155: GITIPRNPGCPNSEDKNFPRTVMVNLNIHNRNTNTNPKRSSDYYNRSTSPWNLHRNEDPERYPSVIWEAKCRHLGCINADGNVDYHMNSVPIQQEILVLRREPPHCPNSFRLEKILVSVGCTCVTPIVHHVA

For three molecules, binding results are on record in US20160376343A1.

Residue numbers refer to the chain shown, from its start. Results are given in words; binding and its absence hold for the method and conditions named. Some binding calls cover weakened binding; strength is not graded here.

B1: V6 (Fc fusion, not shown: a dimerising Fc or GST; small tags and cut ends)
chain: SLRLLDHRALVCSQEGLNCTVKNSTCLDDSWIHPRNLTPSSPKDLQIQLHFAHTQQGDLLPVAHIEWTLQTDASILYLEGAELSVLQLNTNERLCVRFEFLSKLRHHHKRWRFTFSHFVVDPGQEYEVTVHHLPKPIPDGDPNHQSKNFLVPDCEHARMKVTTPCMSSGSLWDPNITVETLEAHQLRVSFTLWNESTHYQILLTSFPHMENHSCFEHMHHIPAPRPEEFHQRSNVTLTLRNLKGCCRHQVQIQPFFSSCLNDCLRHSATVSCPEMPDTPEPIPDYMPLW
For the molecule B1, the binding entry is listed as “binds”.

B2: V7 (Fc fusion, not shown: a dimerising Fc or GST; small tags and cut ends)
chain: B1 chain with E15P, L60V, G123D, H156D
With B2, the binding result is “binds”.

B3: V8 (Fc fusion, not shown: a dimerising Fc or GST; small tags and cut ends)
chain: B1 chain with L60F, G123D, H156D
In the case of B3, the binding entry is reported as “binds”.
